PubChem BioAssay AID1259254, NCATS, 2017
Here is an unselected part of about 59,000 reagents tested. Of all reagents, about 1,550 (2.6%) got an active call. 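G2 share is only a proxy for re-replication; each gene was hit by three separate siRNAs, and active genes were retested.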 Reagents against one gene are numbered here. Not all columns of the deposit are shown. The record does not give: the amount of reagent.

Purpose: 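Genome-wide screen for genes that prevent DNA re-replication in cancer cells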 (primary screen)
Cell system: human HCT116 colorectal cancer cells
Reagent: single siRNA against human genes
Duration: 3 days
Measured: 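Imaged Hoechst DNA stain sorts each cell into a cycle phase by DNA amount; per plate, G2 fraction set to 0% for non-targeting and 100% for GMNN siRNA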
Reading the numbers: G2 robust z-score: higher = more G2 cells, more excess DNA replication
Rule for the call: 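An siRNA counts as active if its G2 robust z-score lies at least 5 MADs above the screen median; here such calls match roughly 38% of GMNN control or more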

G2 robust z-score, by target gene and reagent
TTYH1: #1 0.98 inactive; #2 2.28 inactive; #3 0.0555 inactive
H2AX: #1 -1.02 inactive; #2 -0.871 inactive; #3 -0.9 inactive
MRPL20: #1 3.37 inactive; #2 -0.262 inactive; #3 -1.2 inactive
ZNF564: #1 -0.284 inactive; #2 1.26 inactive; #3 1.63 inactive
LRRC19: #1 0.995 inactive; #2 1.76 inactive; #3 -0.577 inactive
TRNT1: #1 1.36 inactive; #2 -0.654 inactive; #3 4.09 inactive
ZFYVE9: #1 6.96 active; #2 -0.289 inactive; #3 2.24 inactive
IQCF1: #1 -0.419 inactive; #2 2.61 inactive; #3 -0.202 inactive
KALRN: #1 2.05 inactive; #2 0.39 inactive; #3 0.725 inactive
TRIM74: #1 -0.654 inactive; #2 -0.159 inactive; #3 0.478 inactive
TJP1: #1 -0.117 inactive; #2 0.111 inactive; #3 0.852 inactive
C17orf100: #1 1.38 inactive; #2 -0.657 inactive; #3 1.55 inactive
PADI1: #1 -1.15 inactive; #2 -0.379 inactive; #3 2.21 inactive
MSH2: #1 -0.179 inactive; #2 -0.914 inactive; #3 -0.538 inactive
KRIT1: #1 0.732 inactive; #2 2.89 inactive; #3 0.0645 inactive
RIMS1: #1 0.177 inactive; #2 -1.06 inactive; #3 0.542 inactive
PBLD: #1 0.2 inactive; #2 0.732 inactive; #3 -0.226 inactive
FCMR: #1 -0.112 inactive; #2 1.55 inactive; #3 -0.158 inactive
PRELID2: #1 3.72 inactive; #2 1.09 inactive; #3 -0.0532 inactive
COL28A1: #1 -0.415 inactive; #2 1.14 inactive; #3 -0.523 inactive
GPR62: #1 -1.19 inactive; #2 0.145 inactive; #3 -0.772 inactive
OR5M8: #1 0.119 inactive; #2 1.35 inactive; #3 2.7 inactive
CPAMD8: #1 -0.00577 inactive; #2 0.614 inactive; #3 3.48 inactive
TMPRSS11F: #1 -0.344 inactive; #2 1.4 inactive; #3 -0.573 inactive
RIT2: #1 -0.243 inactive; #2 -0.189 inactive; #3 0.75 inactive
CD3E: #1 0.201 inactive; #2 -0.841 inactive; #3 0.446 inactive
STAC2: #1 -0.93 inactive; #2 1.22 inactive; #3 4.16 inactive
NOL7: #1 5.13 active; #2 -0.59 inactive; #3 1.28 inactive
FFAR4: #1 -1.03 inactive; #2 0.648 inactive; #3 -0.854 inactive

Records listed so far whose gene name starts with F or f (6):
G2 robust z-score, by target gene and reagent
FCMR: #1 -0.112 inactive; #2 1.55 inactive; #3 -0.158 inactive
FFAR4: #1 -1.03 inactive; #2 0.648 inactive; #3 -0.854 inactive
